These results are taken from PubChem BioAssay AID1347423 (Functional Genomics Laboratory (NCATS/FGL), 2020).

Out of some 52,000 sequences screened, about 210 (0.4%) were called active.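 The calls were made as follows: active = gene whose silencing raises cell survival under the drug, median off-target-corrected z-score across its silencing RNAs 2 or more; inactive = the rest.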 Some of the results follow.

A short description of this test: Resistance to Poly (ADP-Ribose) Polymerase inhibitor: Gene Identification via Genome-wide siRNA Screen. Particulars: mouse BRCA2 R2336H ES cells, olaparib, CellTiter-Glo viability; stronger effect = higher value. Summed up: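 Genome-wide siRNA screen (3 siRNAs/gene, 20 nM) in mouse ES cells carrying hypomorphic BRCA2 R2336H; olaparib 500 nM added 48 h post-transfection, CellTiter-Glo viability 72 h later. Normalized to plate-median negative control; MAD z-scores, gene median, seed-adjusted.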
On to GGUUUGGUAAGUCAUCUUATT against Dapp1, for which the z-score was inactive: 1.21.

Turning to GGACAGAGUUUUCAUUUUGTT against Rptn, the z-score was inactive: 0.179.

Consider GGAUGCACAUAUUCAAGCCTT against Gm1395, for which the z-score was inactive: -0.134.

On to GGACACAAGGUCGCCAUCUTT against Tcf3, for which the z-score was inactive: 0.766.

On to “GGCUCACAGGACCUAUUUCTT against E330026B02Rik”, for which the z-score was inactive: -1.52.

As for GGAGCUCUCAUCCUACUAUTT against Eif4ebp3, the z-score was inactive: -0.0385.

Consider CCUGGAUAGUCGAUCCACUTT against Mesp1, for which the z-score is inactive: 0.584.

For the sequence CCUAUGAGGAUAUGUGGAUTT against Adm2, the z-score was inactive: -0.641.

For the sequence GGUGAUAGUCCACGAGGUUTT against Mbc2, the z-score is inactive: -1.31.

As for GGUUUUCCGAGGUUUCAAGTT against Azgp1, the z-score is inactive: 1.28.

As for GGGAGAAGGUGGAAAUACUTT against Hdgfrp3, the z-score is inactive: -1.78.

In the case of GGAUUUUCUUGACAAGCCATT against Rnf146, the z-score is inactive: 0.82.

As to GGAAAAAAUUAAAGAGCACTT against Gcl, the z-score is inactive: 0.609.

As to GCAACGUGGUCAUCAAUCUTT against Ndufa9, the z-score was inactive: 2.26.

In the case of “GGAAAUCAGAGAGAGGUAUTT against D330024H06Rik”, the z-score is inactive: -0.275.

Regarding “GCAUUGUCCGAGGUUUAUUTT against 1300010A20Rik”, the z-score was inactive: 1.33.

Consider “GCUGUAUGCCUGUUUAGUGTT against E130201N16Rik”, for which the z-score was inactive: 0.603.

Regarding GGCUUCCUGAUUCAAGAUGTT against Gzmd, the z-score was inactive: 0.093.

Turning to “GCAGCAUACAUAAUGUAACTT against C030048B08Rik”, the z-score is inactive: -0.142.

On to CCACUACUCGCCUUGGAAUTT against Slc25a11, for which the z-score is inactive: -0.963.

As to “CGGUAACUUUGUCGUUUAGTT against 4930544G11Rik”, the z-score was inactive: 0.528.

GGGUGGUUGGAAAUGAUACTT against Kdr: the z-score was inactive: -0.805.

For GGUGACUUCAUUUAGUUUGTT against Zfp352, the z-score was inactive: -0.00648.

As to CCGAGUUUGUGUCACCACUTT against Krtcap2, the z-score was inactive: -0.616.

In the case of GGGCUGUGAGCUCUGUUCATT against Rspondin, the z-score is inactive: -1.34.

UCAGAAUUCGAAAACUGGATT against Olfr1297: the z-score was inactive: 0.13.

Consider GGAUAAUGGGAUGAGUCCUTT against Kcnq1, for which the z-score was inactive: 0.317.

Regarding GGCCCAGAAAUGAUAUGGATT against Etd, the z-score was inactive: 1.65.

GCCAGAAUCUGUUGUGAACTT against Gfpt1: the z-score was inactive: 2.1.

On to GGAGAAACGAAACAAGAGUTT against Fkbp11, for which the z-score is inactive: 2.35.

Take GGUCUUUACAGUCCUCUACTT against Olfr71: the z-score is inactive: 1.17.

For the sequence GGUCUUUGUAUUUGAUGUUTT against Ctbs, the z-score is inactive: -0.513.

With GGAGAGAAUGGACCAUCUCTT against Rnase10, the z-score was inactive: -0.163.

Take GGUCAAAGAAGGAAAACACTT against Foxn1: the z-score was inactive: -0.92.

As to CCCAGGACCAUUGUUUGCATT against Olfr745, the z-score is inactive: -0.185.

Take “GGUUCAUCGUUUCAAGUUUTT against 4932415G16Rik”: the z-score was inactive: 0.789.

In the case of CCGUAACCCAGAAAAUGUATT against BC014699, the z-score is inactive: 0.824.

On to GGAAUGCUUAAAGCUUUAATT against Clasp2, for which the z-score was inactive: -2.3.

For GGACAGCAGUAAAUAUACUTT against Coq3, the z-score was inactive: -0.0464.

With GGGCAUAUUCACGAUCAAUTT against Fut2, the z-score is inactive: -2.04.

GGUUUAUUUGAUGUCCACATT against Rab2b: the z-score was inactive: 1.43.

As to GGGCUUGAAGGAAUUGACUTT against Cyp4f14, the z-score is inactive: -0.255.

“GGAAACCUAUUGUAUACAATT against 9230117N10Rik”: the z-score was inactive: 1.52.

For GGGCCGUUUCCUGAAGAUCTT against Pura, the z-score is inactive: 0.568.

On to GGUGUGGGUUUAACUAUCUTT against Olfr686, for which the z-score was inactive: 0.459.

On to GGAACCACUUUAUUUGUCATT against Dcamkl1, for which the z-score is inactive: 1.06.

As for GGAAGAUUCUAGAAAUGUGTT against BC057371, the z-score was inactive: -0.524.

CGUAAAGGAACACUCUCGGTT against Eif3s2: the z-score was inactive: -2.56.

GGGUUACCGGAAUGUUAUCTT against Tgm2: the z-score was inactive: 1.35.

On to GCCAGUAACGACAAAGACATT against Per3, for which the z-score is inactive: -1.33.

Turning to GGAGACUGGAGAGCAAAAUTT against Krt1-18, the z-score was inactive: -0.338.

For GCACUGAUUACGCUAAUUUTT against Scap2, the z-score was inactive: 2.58.

Regarding GGCCAGAAGAUCUUCACCATT against Furin, the z-score was inactive: 0.509.

As to GGGCUAGACGAGAAUACUGTT against Bhmt2, the z-score is inactive: -2.49.

On to “GGAUAGAGACUGCUGGGUUTT against 1110003A17Rik”, for which the z-score is inactive: -1.2.

On to GGGCUGAUCUUUUUAACUGTT against Tpm3, for which the z-score is inactive: 0.317.

For the sequence GGAAAGCAUCGAGGAAGACTT against Rbm28, the z-score is inactive: 0.248.

Regarding GGAUUCAGUGGAAAUCUUUTT against Gja12, the z-score is inactive: 0.0872.

For the sequence GCUAUCCGUGCUAGAUAUGTT against Elp3, the z-score is inactive: 0.554.

Take “GGAGUUGAGAUCAUGUAGGTT against 1600013P15Rik”: the z-score is inactive: 2.45.

Consider GGAUAUGAGCGGUAUUUUGTT against Trim34, for which the z-score was inactive: 0.941.

Consider “GGAGAUGCGAGUACAACUGTT against A330104H05Rik”, for which the z-score was inactive: -0.0746.

Consider GGUUUUACAAAUGAACUUGTT against Cacna2d1, for which the z-score is inactive: -0.104.

For CCUAAGACAUGCAACAUGATT against Adam25, the z-score was inactive: 0.637.

On to UUUGGUAUGGCUCUACUAUTT against Olfr523, for which the z-score is inactive: 0.192.

For GGAGACACGACUUUAAAAATT against Slco1c1, the z-score is inactive: 1.22.

Regarding GGACUGAAGAUCAUAUUCATT against Csh2, the z-score is inactive: 0.521.
